Data as given in PubChem BioAssay AID1259405 (NCATS, 2018)
Assay: 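Mouse-designed siRNAs used to find CHO productivity engineering targets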 (primary screen). Cell system: Chinese hamster CHO-K1 ovary cells with stable secreted eGFP expression. Reagents: single siRNA against mouse genes, 0.8 pmol siRNA per well (2 µl of 400 nM stock). Time to read-out: 3 days. Measured: 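Percent of the per-plate non-targeting control median for intracellular GFP per well by laser scanning cytometry and for cell viability by ATP luminescence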. Direction: GFP, % of control: higher = more GFP per well, higher productivity; viability (ATP), % of control: higher = more viable cells (more ATP). Active means: 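a knock-down is called active if GFP reaches 120% or more of non-targeting control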.
Shown is one part, drawn at random, of about 50,000 reagents. About 4,000 of all reagents (8%) count as active. 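Mouse siRNA library applied to hamster cells; one well for each siRNA.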 Unmarked entries are inactive. No sequences are given here.

Kmt5a (lysine methyltransferase 5A) [SID363569566]: GFP, % of control = 95.9; viability (ATP), % of control = 89
Kmt5a (lysine methyltransferase 5A) [SID363577310]: GFP, % of control = 113; viability (ATP), % of control = 91.4
Kmt5a (lysine methyltransferase 5A) [SID363578718]: GFP, % of control = 67.7; viability (ATP), % of control = 87.7
Itga2 (integrin alpha 2) [SID363573422]: GFP, % of control = 74.5; viability (ATP), % of control = 69.6
Itga2 (integrin alpha 2) [SID363588661]: GFP, % of control = 113; viability (ATP), % of control = 92.9
Trh (thyrotropin releasing hormone) [SID363556255]: GFP, % of control = 56.3; viability (ATP), % of control = 63.4
Trh (thyrotropin releasing hormone) [SID363586705]: GFP, % of control = 64.4; viability (ATP), % of control = 86.9
Trh (thyrotropin releasing hormone) [SID363588813]: GFP, % of control = 103; viability (ATP), % of control = 58.1
Ckap2l (cytoskeleton associated protein 2-like) [SID363543827]: GFP, % of control = 106; viability (ATP), % of control = 62.9
Ckap2l (cytoskeleton associated protein 2-like) [SID363551563]: GFP, % of control = 93.3; viability (ATP), % of control = 128
Ckap2l (cytoskeleton associated protein 2-like) [SID363559168]: GFP, % of control = 58; viability (ATP), % of control = 72.3
Yipf6 (Yip1 domain family, member 6) [SID363542819]: GFP, % of control = 90.1; viability (ATP), % of control = 91
Yipf6 (Yip1 domain family, member 6) [SID363546336]: GFP, % of control = 73.2; viability (ATP), % of control = 39.5
Yipf6 (Yip1 domain family, member 6) [SID363548092]: GFP, % of control = 80.1; viability (ATP), % of control = 66.6
Mettl16 (methyltransferase 16, N6-methyladenosine) [SID363543706]: GFP, % of control = 72.1; viability (ATP), % of control = 90.2
Mettl16 (methyltransferase 16, N6-methyladenosine) [SID363551442]: GFP, % of control = 55.1; viability (ATP), % of control = 85.6
Mettl16 (methyltransferase 16, N6-methyladenosine) [SID363559047]: GFP, % of control = 101; viability (ATP), % of control = 64.7

Next part; the last 5 above are carried over.
Yipf6 (Yip1 domain family, member 6) [SID363546336]: GFP, % of control = 73.2; viability (ATP), % of control = 39.5
Yipf6 (Yip1 domain family, member 6) [SID363548092]: GFP, % of control = 80.1; viability (ATP), % of control = 66.6
Mettl16 (methyltransferase 16, N6-methyladenosine) [SID363543706]: GFP, % of control = 72.1; viability (ATP), % of control = 90.2
Mettl16 (methyltransferase 16, N6-methyladenosine) [SID363551442]: GFP, % of control = 55.1; viability (ATP), % of control = 85.6
Mettl16 (methyltransferase 16, N6-methyladenosine) [SID363559047]: GFP, % of control = 101; viability (ATP), % of control = 64.7
Nhsl1 (NHS like 1) [SID363550345]: GFP, % of control = 66.8; viability (ATP), % of control = 74.9
Nhsl1 (NHS like 1) [SID363564854]: GFP, % of control = 34.3; viability (ATP), % of control = 65.1
Nhsl1 (NHS like 1) [SID363588399]: GFP, % of control = 95.3; viability (ATP), % of control = 119
Chst3 (carbohydrate sulfotransferase 3) [SID363570461]: GFP, % of control = 89.6; viability (ATP), % of control = 108
Chst3 (carbohydrate sulfotransferase 3) [SID363579261]: GFP, % of control = 107; viability (ATP), % of control = 114
Chst3 (carbohydrate sulfotransferase 3) [SID363583133]: GFP, % of control = 108; viability (ATP), % of control = 97.2
Hecw1 [SID363572751]: GFP, % of control = 57.3; viability (ATP), % of control = 67.4
Hecw1 [SID363578031]: GFP, % of control = 51.8; viability (ATP), % of control = 59.2
Hecw1 [SID363582255]: GFP, % of control = 115; viability (ATP), % of control = 152
Psenen (presenilin enhancer gamma secretase subunit) [SID363543511]: GFP, % of control = 154 (active); viability (ATP), % of control = 96.5
Psenen (presenilin enhancer gamma secretase subunit) [SID363553004]: GFP, % of control = 98.5; viability (ATP), % of control = 57.9
Psenen (presenilin enhancer gamma secretase subunit) [SID363558852]: GFP, % of control = 62.2; viability (ATP), % of control = 65.6
Gm11507 (predicted gene 11507) [SID363541853]: GFP, % of control = 66.6; viability (ATP), % of control = 42.3
Gm11507 (predicted gene 11507) [SID363553445]: GFP, % of control = 60.9; viability (ATP), % of control = 77.2
Gm11507 (predicted gene 11507) [SID363566769]: GFP, % of control = 144 (active); viability (ATP), % of control = 51.2
Il10ra (interleukin 10 receptor, alpha) [SID363568938]: GFP, % of control = 86; viability (ATP), % of control = 81.9
Il10ra (interleukin 10 receptor, alpha) [SID363576330]: GFP, % of control = 113; viability (ATP), % of control = 76
Il10ra (interleukin 10 receptor, alpha) [SID363579146]: GFP, % of control = 50.7; viability (ATP), % of control = 69.2
Gh (growth hormone) [SID363541347]: GFP, % of control = 76.2; viability (ATP), % of control = 51.7
Gh (growth hormone) [SID363555974]: GFP, % of control = 87.7; viability (ATP), % of control = 73.4
Gh (growth hormone) [SID363566263]: GFP, % of control = 32.3; viability (ATP), % of control = 35.4
Uqcrc1 (ubiquinol-cytochrome c reductase core protein 1) [SID363573027]: GFP, % of control = 59.9; viability (ATP), % of control = 91.4
Uqcrc1 (ubiquinol-cytochrome c reductase core protein 1) [SID363577603]: GFP, % of control = 47.4; viability (ATP), % of control = 51.7
Uqcrc1 (ubiquinol-cytochrome c reductase core protein 1) [SID363581123]: GFP, % of control = 91.9; viability (ATP), % of control = 68.9
